PubChem BioAssay AID1259308, NCATS – 2017
Screen: 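Candidate targets for better recombinant protein yield in mammalian cells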 (primary screen). Cells: human HEK293 embryonic kidney cells stably expressing firefly luciferase (HEK-CMV-Luc2-Hygro). Reagents: single siRNA against human genes, 0.8 pmol siRNA per well. Time to read-out: 72 h. Measured: 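Reporter luminescence and viable-cell signal on separate replicate plates, given as percent of non-targeting control and median/MAD z-scores, plus per-cell luciferase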. Direction: total luciferase, z-score and total luciferase, % of control: higher = more reporter protein produced; luciferase per cell, z-score: higher = more reporter output per viable cell; viable cells, % of control: higher = more viable cells. Call rule: 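An siRNA counts as active if its total luciferase robust z-score exceeds 3; genes with two or more such siRNAs out of three were retested with fresh siRNAs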. Calls: active = raised luciferase; inactive = no rise.
In all, the deposit lists about 59,000 reagents; below is an unselected part. About 1,510 of all reagents (2.6%) were called active. 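Calls use total luciferase alone and ignore viability, so some active siRNAs may act by altering cell number.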 Unmarked entries are inactive. Reagents against one gene are numbered here.

Target gene | reagent no. | total luciferase, z-score | total luciferase, % of control | luciferase per cell, z-score | viable cells, % of control
TAS2R1 (GeneID 50834) | 1 | 0.996 | 102 | 1.71 | 72.4
TAS2R1 (GeneID 50834) | 2 | -1.2 | 57.9 | -1.65 | 99.9
TAS2R1 (GeneID 50834) | 3 | -0.358 | 74.8 | -0.656 | 99.3
LTA4H (GeneID 4048) | 1 | 1.17 | 105 | 1.45 | 80.2
LTA4H (GeneID 4048) | 2 | -0.159 | 78.7 | -0.508 | 101
LTA4H (GeneID 4048) | 3 | 0.477 | 91.4 | 0.629 | 86.5
CASP3 (GeneID 836) | 1 | -2.02 | 41.6 | -1.42 | 67.7
CASP3 (GeneID 836) | 2 | -1.61 | 50 | -0.639 | 66.1
CASP3 (GeneID 836) | 3 | -2.05 | 41.2 | -2.01 | 78.2
HACD4 (GeneID 401494) | 1 | -1.25 | 57 | 0.211 | 60.3
HACD4 (GeneID 401494) | 2 | 0.689 | 95.6 | 0.973 | 82.7
HACD4 (GeneID 401494) | 3 | -0.837 | 65.2 | -0.607 | 85.5
RDX (GeneID 5962) | 1 | 0.075 | 83.4 | -0.00414 | 93.3
RDX (GeneID 5962) | 2 | 0.0249 | 82.4 | -0.282 | 99.2
RDX (GeneID 5962) | 3 | 0.519 | 92.2 | -0.222 | 109
FAABTP (GeneID 55266) | 1 | 1.21 | 106 | 0.767 | 96.7
FAABTP (GeneID 55266) | 2 | 2.96 | 141 | 2.21 | 88
FAABTP (GeneID 55266) | 3 | -1.12 | 59.6 | -1.07 | 88.3
CBX1 (GeneID 10951) | 1 | 0.47 | 91.2 | 0.625 | 86.5
CBX1 (GeneID 10951) | 2 | -0.526 | 71.4 | -0.83 | 99.3
CBX1 (GeneID 10951) | 3 | 0.159 | 85.1 | 0.332 | 87.1
ZNF146 (GeneID 7705) | 1 | -0.472 | 72.5 | -0.0382 | 81.8
ZNF146 (GeneID 7705) | 2 | -0.856 | 64.9 | -0.586 | 84.6
ZNF146 (GeneID 7705) | 3 | 0.444 | 90.7 | 1.77 | 63.6
ARFGEF3 (GeneID 57221) | 1 | 0.338 | 88.6 | -0.528 | 114
ARFGEF3 (GeneID 57221) | 2 | 1.31 | 108 | 1.38 | 83.7
ARFGEF3 (GeneID 57221) | 3 | -0.643 | 69.1 | -1.43 | 113
RPL18P4 (GeneID 392979) | 1 | -1.98 | 42.6 | -1.11 | 63.8
RPL18P4 (GeneID 392979) | 2 | 0.485 | 91.5 | 0.364 | 92.9
RPL18P4 (GeneID 392979) | 3 | -1.04 | 61.2 | -0.921 | 87.1
RPL18P4 (GeneID 392979) | 4 | -0.607 | 69.8 | 0.147 | 75.1
RPL18P4 (GeneID 392979) | 5 | 0.13 | 84.5 | 0.432 | 84.3
RPL18P4 (GeneID 392979) | 6 | -0.925 | 63.5 | -0.993 | 92.1
LINC00614 (GeneID 645587) | 1 | 0.0707 | 83.3 | 0.209 | 88.1
LINC00614 (GeneID 645587) | 2 | -2.15 | 39.1 | -2.38 | 81.6
LINC00614 (GeneID 645587) | 3 | -0.481 | 72.3 | -0.689 | 96.9
KCNMB1 (GeneID 3779) | 1 | -0.177 | 78.4 | -0.222 | 92.8
KCNMB1 (GeneID 3779) | 2 | -2.64 | 29.3 | -2.31 | 60.1
KCNMB1 (GeneID 3779) | 3 | 0.709 | 96 | 1 | 82.4
SMIM34 (GeneID 388820) | 1 | -0.437 | 73.2 | 0.231 | 77
SMIM34 (GeneID 388820) | 2 | -0.226 | 77.4 | -0.82 | 107
SMIM34 (GeneID 388820) | 3 | -0.136 | 79.2 | -0.39 | 98
SNX27 (GeneID 81609) | 1 | 1.23 | 106 | 1.23 | 86
SNX27 (GeneID 81609) | 2 | 0.251 | 86.9 | 0.0705 | 95.3
SNX27 (GeneID 81609) | 3 | -1.43 | 53.5 | -1.87 | 97.9
CFAP144 (GeneID 440585) | 1 | -1.53 | 51.4 | -0.289 | 61.9
CFAP144 (GeneID 440585) | 2 | -0.771 | 66.5 | -0.545 | 85.8
CFAP144 (GeneID 440585) | 3 | -0.52 | 71.5 | -0.488 | 90.9
CNBP (GeneID 7555) | 1 | 0.14 | 84.7 | 0.0941 | 92.3
CNBP (GeneID 7555) | 2 | -0.753 | 66.9 | 0.181 | 71.3
CNBP (GeneID 7555) | 3 | -0.417 | 73.6 | -0.0113 | 82.5
DLG1 (GeneID 1739) | 1 | 0.0874 | 83.6 | -0.456 | 105
DLG1 (GeneID 1739) | 2 | 0.451 | 90.9 | 0.335 | 93
DLG1 (GeneID 1739) | 3 | -0.397 | 74 | -0.813 | 102
OR2B2 (GeneID 81697) | 1 | -0.374 | 74.4 | -1.1 | 111
OR2B2 (GeneID 81697) | 2 | -1.46 | 52.9 | -1.54 | 88.5
OR2B2 (GeneID 81697) | 3 | -2.16 | 38.9 | -1.88 | 71.3

In a second layout: 2 of the entries above.
| Target gene | reagent no. | total luciferase, z-score | total luciferase, % of control | luciferase per cell, z-score | viable cells, % of control |
| --- | --- | --- | --- | --- | --- |
| RPL18P4 (GeneID 392979) | 4 | -0.607 | 69.8 | 0.147 | 75.1 |
| RPL18P4 (GeneID 392979) | 5 | 0.13 | 84.5 | 0.432 | 84.3 |
